No constants are given. Whether binding was seen depends on the method and setting. In cells and extracts the contact can be indirect. A yes stands for co-enrichment or nearness to the bait. Other partners may have been found.
Target: Strep-pNEDD8 (human NEDD8 1-76 phosphorylated at S65, N-terminal Strep-tag II) (human) (UniProt Q15843)
Assay: affinity purification with mass spectrometry; 25 µg Strep-Ub/NEDD8 variant as bait with 2.5 mg HEK293T or SHSY5Y whole-cell lysate, Strep-Tactin Superflow beads, 4 °C 3 h, 1x PBS, 2 mM MgCl2, 1 mM DTT, non-denaturing; empty beads as control; label-free quantitative MS, ANOVA (FDR 0.02, S0 1); only the target purified

Amino acid sequences for entries named in this document (tags omitted). Residues count along the entry.
UniProt Q15843, residues 1-76: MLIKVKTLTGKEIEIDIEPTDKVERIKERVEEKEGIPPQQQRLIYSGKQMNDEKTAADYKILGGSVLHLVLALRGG
UniProt Q9UBN7: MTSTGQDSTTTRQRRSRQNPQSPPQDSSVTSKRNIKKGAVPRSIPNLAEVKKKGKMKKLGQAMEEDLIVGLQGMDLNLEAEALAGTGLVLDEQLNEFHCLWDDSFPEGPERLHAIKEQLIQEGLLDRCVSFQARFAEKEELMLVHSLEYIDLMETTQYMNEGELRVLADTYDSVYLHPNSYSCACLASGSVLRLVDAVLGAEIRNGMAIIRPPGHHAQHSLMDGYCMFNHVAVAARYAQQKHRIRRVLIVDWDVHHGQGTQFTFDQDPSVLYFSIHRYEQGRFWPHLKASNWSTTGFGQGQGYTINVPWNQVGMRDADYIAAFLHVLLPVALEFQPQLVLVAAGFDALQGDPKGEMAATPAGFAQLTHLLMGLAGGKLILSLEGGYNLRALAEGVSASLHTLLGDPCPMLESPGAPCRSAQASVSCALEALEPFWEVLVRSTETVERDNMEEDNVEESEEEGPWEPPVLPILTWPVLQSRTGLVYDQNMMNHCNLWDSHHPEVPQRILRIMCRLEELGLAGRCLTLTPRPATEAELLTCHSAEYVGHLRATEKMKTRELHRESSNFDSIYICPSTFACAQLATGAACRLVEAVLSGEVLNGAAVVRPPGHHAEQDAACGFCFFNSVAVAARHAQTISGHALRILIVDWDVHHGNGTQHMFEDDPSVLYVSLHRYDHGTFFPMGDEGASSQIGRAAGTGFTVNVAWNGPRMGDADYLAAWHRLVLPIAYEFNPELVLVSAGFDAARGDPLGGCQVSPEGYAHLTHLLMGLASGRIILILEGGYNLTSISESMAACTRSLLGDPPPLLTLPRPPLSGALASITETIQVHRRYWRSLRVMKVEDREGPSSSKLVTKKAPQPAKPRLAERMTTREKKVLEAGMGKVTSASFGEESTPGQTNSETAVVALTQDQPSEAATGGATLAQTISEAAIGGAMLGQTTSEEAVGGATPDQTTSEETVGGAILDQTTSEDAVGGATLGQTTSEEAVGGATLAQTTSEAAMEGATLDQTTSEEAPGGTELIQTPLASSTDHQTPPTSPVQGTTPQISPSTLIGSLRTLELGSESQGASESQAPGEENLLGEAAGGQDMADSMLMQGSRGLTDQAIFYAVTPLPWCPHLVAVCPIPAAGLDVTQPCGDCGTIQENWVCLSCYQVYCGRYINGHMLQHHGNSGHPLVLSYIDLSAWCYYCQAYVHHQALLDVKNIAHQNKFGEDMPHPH

Question: How did the binding turn out when HDAC6 (from UniProt Q9UBN7 1-1215) was run?
Answer: binds

Reference: article PMC9020517
